Laboratory results as given in patent publication US20050196795A1, “Methods for diagnosing and treating bladder cancer” (priority 2004, published 2005).
Some of these results come from one statement about several compounds together.

System: HT-1376 cells
Assay: MIF gene expression by RT-PCR normalized to 18S rRNA
Assay type: cell-based, human

Substance: hyaluronan [Healon]
- decrease in MIF mRNA: greater than 2 fold
